Assay results as given in patent US12617831B2 (UNIVERSITE D'ANGERS, priority 2019, dated 2026).
For some assays here: Not every detail of the peptide structures is certain; ends, links or a residue may be inferred. For some assays here: At least one compound was matched to its structure with a doubt left.

Assays:
[1] = tested on: human peripheral blood mononuclear cells; assay: Human osteoclast formation from peripheral blood mononuclear cells; assay type: cell-based; conditions: human PBMC, M-CSF 25 ng/ml + sRANKL 50 ng/ml, 1 nM peptide (FIG. 3)
Description: Human peripheral blood mononuclear cells were isolated from 3 buffy coats obtained at the Etablissement Francais du Sang (Angers, France) as described in Mabilleau and Sabokbar (2009) PLoS One 4:e4173. Blood was diluted 1:1 in α-minimal essential medium (MEM) (Invitrogen, Paisley, UK), layered over Histopaque and centrifuged (700×g) for 20 min. The interface layer was resuspended in MEM then centrifuged (600×g) for a further 10 min after which the resultant cells were resuspended in media supplemented with 10% heat inactivated foetal calf serum (FCS, Invitrogen, Paisley, UK) and counted in a haemocytometer following lysis of red blood cells using a 5% (v/v) acetic acid solution. […] (2011) J Biol Chem 286:3242-3249). After 2 h incubation, cultures were vigorously rinsed in medium to remove non-adherent cells, and then maintained in 1 ml MEM/FCS with 25 ng/ml recombinant human M-CSF, 50 ng/ml recombinant human sRANKL (added at day 7) and various concentrations of gut hormone analogues (added at day 7). Cultures were terminated after 14 days to assess the extent of osteoclast formation (TRAcP staining as described below). All factors were replenished every 2-3 days. […] Cultures were rinsed three times in distilled water and the residual activity was inhibited by 4% NaF for 30 minutes. […] The number of newly generated were assessed using light microscopic examination.

Murine MC3T3-E1 cells = assay: Collagen maturity assay in MC3T3-E1 cultures (Example 2); assay type: cell-based; conditions: 200 nM, vs vehicle (FIG. 2)
Description: At confluence, the propagation medium was replaced by the differentiation medium containing αMEM supplemented with 5% FBS, 5% bovine calf serum, 100 U/mL penicillin, 100 μg/mL streptomycin, 50 μg/ml ascorbic acid and various concentrations of analogues. This day was considered as day 1. The differentiation medium was replenished every two days. […] Cultures were rinsed at least six times with milliQ water, fixed in absolute ethanol, scrapped off the culture dish and transferred onto BaF2 windows where they were air-dried. Integrity of the collagen extracellular matrix was verified by comparing the obtained Fourier transform infrared spectrum with those of commercial collagen. Spectral analysis was performed using a Bruker Vertex 70 spectrometer (Bruker optics, Ettlingen, Germany) interfaced with a Bruker Hyperion 3000 infrared microscope equipped with a standard single element Mercury Cadmium Telluride (MCT) detector. Infrared spectra were recorded at a resolution of 4 cm^−1, with an average of 32 scans in transmission mode. Background spectral images were collected under identical conditions from the same BaF2 windows at the beginning and end of each experiment to ensure instrument stability. At least 20 spectra were acquired for each condition and analyzed with a lab-made routine script in Matlab R2016b (The Mathworks, Natick, MA).

human GIPr = molecular target: T1, human GIPr (Homo sapiens, UniProt P48546); assay: Cyclic AMP assay (FRET, H74 probe), HEK-293 transfected with human GIPr; assay type: cell-based; conditions: HEK 293 transfected only with human GIPr, 10^-9 M, 30 min (FIG. 16)
T1 construct: host or cells: HEK-293
T1 sequence (P48546 22-466): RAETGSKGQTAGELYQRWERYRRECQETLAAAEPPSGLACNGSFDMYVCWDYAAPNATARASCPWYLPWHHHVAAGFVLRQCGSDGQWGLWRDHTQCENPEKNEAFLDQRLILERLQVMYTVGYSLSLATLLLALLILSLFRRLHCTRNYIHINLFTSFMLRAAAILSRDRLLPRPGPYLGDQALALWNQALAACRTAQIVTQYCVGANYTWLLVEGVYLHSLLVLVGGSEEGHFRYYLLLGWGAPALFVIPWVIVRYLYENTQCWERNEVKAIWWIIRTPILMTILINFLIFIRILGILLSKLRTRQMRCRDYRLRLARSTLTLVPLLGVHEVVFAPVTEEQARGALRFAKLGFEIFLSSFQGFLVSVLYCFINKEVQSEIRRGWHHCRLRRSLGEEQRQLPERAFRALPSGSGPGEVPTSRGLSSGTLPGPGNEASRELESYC
Description: (§1) Human HEK-293 cells were plated at a density of 2×10^5 cells/cm^2 in 4 well microslides (ibidi GmbH, Martinsried, Germany). […] Jalink (Netherland Cancer Institute, Amsterdam, Netherland). […] The image acquisition was performed with a 63 X, 1.4 N.A. oil immersion objective and a Hybrid® detector (Leica) and images were collected after 30 minutes. Donor excitation was made with a 458 nm Ar laser, donor emission was collected between 460-505 nm and acceptor emission between 520-600 nm by setting the SP8 spectrometer accordingly. FRET was expressed as the ratio between donor and acceptor signals.

[2] = tested on: human GIPr and the human GLP-2r; assay: Cyclic AMP assay (FRET, H74 probe), HEK-293 co-transfected with human GIPr and human GLP-2r; assay type: cell-based; conditions: 10^-9 M, 30 min (FIG. 18)
Description: as §1

[3] = tested on: MC3T3-E1 subclone 4 cells; assay type: cell-based, murine; conditions: MC3T3-E1, day 14
Description: Briefly, MC3T3-E1 subclone 4 cells have been grown and propagated in α-MEM supplemented with 5% fetal bovine serum (FBS), 5% bovine calf serum (BCS), 100 U/mL penicillin, and 100 μg/mL streptomycin in a humidified atmosphere enriched with 5% CO2 at 37° C. […] This day was considered as day 1. The differentiation medium was replenished every two days. […] Cultures were rinsed at least six times with milliQ water, fixed in absolute ethanol, scrapped off the culture dish and transferred onto BaF2 windows where they were air-dried. Integrity of the collagen extracellular matrix was verified by comparing the obtained Fourier transform infrared spectrum with those of commercial collagen. Spectral analysis was performed using a Bruker Vertex 70 spectrometer (Bruker optics, Ettlingen, Germany) interfaced with a Bruker Hyperion 3000 infrared microscope equipped with a standard single element Mercury Cadmium Telluride (MCT) detector. […] Infrared spectra were recorded at a resolution of 4 cm^-1, with an average of 32 scans in transmission mode. […] At least 5 spectra were acquired for each condition and analyzed with a lab-made routine script (version 2.0) in Matlab R2016b (The Mathworks, Natick, MA). […] For GIP and GLP-2 dataset, the inventors used the collagen maturity data previously acquired and analyzed. […]

Murine Raw 264.7 cells = assay type: cell-based
Description: Murine Raw 264.7 cells were grown and expanded in propagation medium containing Dulbecco's modified Eagle medium (DMEM-Gibco) supplemented with 10% fetal bovine serum (FBS-Lonza), 100 U/mL penicillin and 100 μg/mL streptomycin (Gibco) in a humidified atmosphere enriched with 5% CO2 at 37° C. The first passage after thawing Raw 264.7 cells was considered as passage 1. Cells were used up to passage 8. […] Cultures were rinsed three times in distilled water and the residual activity was inhibited by 4% NaF (Sigma-Aldrich) for 30 min. Cells were then rinsed in distilled water and allowed to dry. TRAcP positive cells, with more than three nuclei, were identified as osteoclasts. The number of newly generated osteoclasts was assessed using light microscopic examination by a histologist that was blinded to the treatment intervention. […] For each concentration of peptide, the mean, SD and number of events were computed.

[4] = tested on: ovariectomy-induced bone loss in mice; assay: Cortical bone strength, 3-point bending at the midshaft femur, ovariectomized mice; assay type: in vivo; conditions: OVX mice, femur 3-point bending; peptides 25 or 100 nmoles/kg/day; zoledronic acid once 100 μg/kg iv
Description: At 16 weeks of age, ALZET osmotic pumps (model number 2006, Durect Corp., Cupertino, CA) filled with the below saline or peptide were implanted subcutaneously between the two scapula under general anesthesia in 32 mice. Successful filling of pumps was verified by weighting the pump before and after filling. At 20 weeks of age, ALZET osmotic pumps were replaced by similar pumps to ensure delivery for four new weeks. […] This dose and regimen of zoledronic acid was equivalent to the 5 mg infusion approved for the treatment of post-menopausal osteoporosis in humans. At necropsy, femurs and second lumbar vertebras (L2) were cleaned of soft tissue and immediately frozen in a saline-soaked gauze at −20° C. Three-point-bending experiments were performed on femurs after thawing bones at 4° C. overnight. Femurs were loaded to failure in 3-point bending at 2 mm/min using a servohydraulic materials testing system (Instron 5942, Instron, Elancourt, France). The lower span length was of 10 mm. Femurs were oriented so the anterior quadrant was facing down and subjected to tensile loads. Load and displacement of the upper crosshead, which were digitally recorded at a sampling rate of 100 Hz, were measured using a 500 N load cell (Instron). Stiffness, ultimate load, yield load, post-yield displacement (PYD), and work-to-fracture were calculated from the load-displacement curves. […]

Compound: CC[C@H](C)[C@H](NC(=O)[C@H](CO)NC(=O)[C@H](Cc1ccc(O)cc1)NC(=O)[C@H](CC(=O)O)NC(=O)[C@H](CO)NC(=O)[C@@H](NC(=O)[C@H](Cc1ccccc1)NC(=O)[C@@H](NC(=O)CNC(=O)[C@H](CCC(=O)O)NC(=O)[C@@H](C)NC(=O)[C@@H](N)Cc1ccc(O)cc1)[C@@H](C)O)[C@@H](C)CC)C(=O)N[C@@H](C)C(=O)N[C@@H](CCSC)C(=O)N[C@@H](CC(=O)O)C(=O)N[C@@H](CCCCN)C(=O)N[C@H](C(=O)N[C@@H](Cc1c[nH]cn1)C(=O)N[C@@H](CCC(N)=O)C(=O)N[C@@H](CCC(N)=O)C(=O)N[C@@H](CC(=O)O)C(=O)N[C@@H](Cc1ccccc1)C(=O)N[C@H](C(=O)N[C@@H](CC(N)=O)C(=O)N[C@@H](Cc1c[nH]c2ccccc12)C(=O)N[C@@H](CC(C)C)C(=O)N[C@@H](CC(C)C)C(=O)N[C@@H](C)C(=O)N[C@@H](CCC(N)=O)C(=O)N[C@@H](CCCCN)C(N)=O)C(C)C)[C@@H](C)CC [[D-Ala^2]GIP1-30NH2]
- reduction in osteoclast formation [1]: 16%
- increase in collagen maturity (Murine MC3T3-E1 cells): approximately 82%
- intracellular levels of cAMP (human GIPr): increased intracellular levels of cAMP
- intracellular levels of cAMP [2]: increased intracellular levels of cAMP
- Emax for dose-effect curves on collagen maturity [3]: 108.1%
- IC50 computed from curve fitting of osteoclastogenesis vs. peptide concentration (Murine Raw 264.7 cells; Raw 264.7, RANKL 10 ng/ml, 110 h, * values determined from previous experiments): 41.4*
- Emax, maximum inhibitory effect on osteoclastogenesis (Murine Raw 264.7 cells; Raw 264.7, * data obtained in previous experiments): 99.51* %

Compound: O=P(O)(O)C(O)(Cn1ccnc1)P(=O)(O)O [zoledronic acid]
- ultimate load, yield load or stiffness [4]: none of the double analogue or zoledronic acid was potent in modifying
